Data reported in the supplement of paper PMC10849652.
Some of the results follow.

Chains of the proteins cited; added tags and fusions are not shown. Lines headed by an entry give the natural chain unless they say otherwise; changes in a name come on top.
UniProt Q92973: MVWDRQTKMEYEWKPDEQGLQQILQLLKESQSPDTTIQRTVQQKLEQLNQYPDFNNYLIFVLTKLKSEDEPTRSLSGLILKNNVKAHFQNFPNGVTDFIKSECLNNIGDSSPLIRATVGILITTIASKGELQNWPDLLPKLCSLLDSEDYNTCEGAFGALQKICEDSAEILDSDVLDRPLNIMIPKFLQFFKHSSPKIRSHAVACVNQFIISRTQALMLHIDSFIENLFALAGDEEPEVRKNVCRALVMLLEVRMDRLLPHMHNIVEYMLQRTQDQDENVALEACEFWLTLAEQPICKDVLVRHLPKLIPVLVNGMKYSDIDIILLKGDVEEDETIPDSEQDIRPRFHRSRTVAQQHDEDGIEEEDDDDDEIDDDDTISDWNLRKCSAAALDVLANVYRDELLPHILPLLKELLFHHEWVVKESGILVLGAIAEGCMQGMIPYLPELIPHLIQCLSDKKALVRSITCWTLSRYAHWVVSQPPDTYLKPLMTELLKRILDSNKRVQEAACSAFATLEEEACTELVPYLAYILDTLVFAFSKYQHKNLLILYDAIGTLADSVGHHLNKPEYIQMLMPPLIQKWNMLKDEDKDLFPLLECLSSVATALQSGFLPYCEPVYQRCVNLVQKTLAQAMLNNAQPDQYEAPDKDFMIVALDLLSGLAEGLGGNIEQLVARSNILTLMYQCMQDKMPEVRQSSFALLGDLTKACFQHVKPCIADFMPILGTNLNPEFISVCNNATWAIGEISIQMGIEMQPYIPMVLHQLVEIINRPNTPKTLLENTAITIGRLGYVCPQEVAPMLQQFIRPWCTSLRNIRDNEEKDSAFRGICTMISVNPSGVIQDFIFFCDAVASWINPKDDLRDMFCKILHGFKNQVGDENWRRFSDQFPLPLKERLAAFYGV
UniProt Q7Z392: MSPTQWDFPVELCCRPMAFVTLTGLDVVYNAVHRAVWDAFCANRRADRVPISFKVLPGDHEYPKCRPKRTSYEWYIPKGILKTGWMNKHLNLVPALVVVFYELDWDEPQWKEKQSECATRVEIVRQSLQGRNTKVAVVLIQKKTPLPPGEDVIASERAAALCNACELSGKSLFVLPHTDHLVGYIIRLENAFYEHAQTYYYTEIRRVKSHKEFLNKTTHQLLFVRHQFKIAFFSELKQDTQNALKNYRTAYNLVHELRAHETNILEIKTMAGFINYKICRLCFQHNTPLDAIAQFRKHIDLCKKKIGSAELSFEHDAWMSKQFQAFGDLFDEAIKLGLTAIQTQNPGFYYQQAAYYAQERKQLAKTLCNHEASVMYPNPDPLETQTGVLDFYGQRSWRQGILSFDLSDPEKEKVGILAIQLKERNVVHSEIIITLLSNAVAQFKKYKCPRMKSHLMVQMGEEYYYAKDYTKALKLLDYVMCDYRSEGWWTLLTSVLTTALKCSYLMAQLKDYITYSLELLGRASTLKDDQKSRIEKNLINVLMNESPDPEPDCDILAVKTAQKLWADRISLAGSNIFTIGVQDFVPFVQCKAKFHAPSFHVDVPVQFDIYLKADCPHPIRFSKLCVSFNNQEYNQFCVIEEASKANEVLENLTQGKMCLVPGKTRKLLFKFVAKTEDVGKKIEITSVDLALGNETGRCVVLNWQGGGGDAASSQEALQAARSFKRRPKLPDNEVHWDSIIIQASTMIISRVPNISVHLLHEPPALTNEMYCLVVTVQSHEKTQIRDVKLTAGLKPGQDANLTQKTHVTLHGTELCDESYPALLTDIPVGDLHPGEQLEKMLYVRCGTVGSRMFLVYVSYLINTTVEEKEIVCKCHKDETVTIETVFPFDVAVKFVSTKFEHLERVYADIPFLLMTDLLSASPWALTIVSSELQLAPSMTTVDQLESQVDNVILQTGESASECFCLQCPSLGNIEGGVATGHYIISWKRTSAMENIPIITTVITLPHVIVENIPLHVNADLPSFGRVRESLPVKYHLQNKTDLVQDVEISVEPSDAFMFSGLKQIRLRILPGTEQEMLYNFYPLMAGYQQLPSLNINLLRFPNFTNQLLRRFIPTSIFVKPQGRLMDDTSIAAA
UniProt Q96GJ1: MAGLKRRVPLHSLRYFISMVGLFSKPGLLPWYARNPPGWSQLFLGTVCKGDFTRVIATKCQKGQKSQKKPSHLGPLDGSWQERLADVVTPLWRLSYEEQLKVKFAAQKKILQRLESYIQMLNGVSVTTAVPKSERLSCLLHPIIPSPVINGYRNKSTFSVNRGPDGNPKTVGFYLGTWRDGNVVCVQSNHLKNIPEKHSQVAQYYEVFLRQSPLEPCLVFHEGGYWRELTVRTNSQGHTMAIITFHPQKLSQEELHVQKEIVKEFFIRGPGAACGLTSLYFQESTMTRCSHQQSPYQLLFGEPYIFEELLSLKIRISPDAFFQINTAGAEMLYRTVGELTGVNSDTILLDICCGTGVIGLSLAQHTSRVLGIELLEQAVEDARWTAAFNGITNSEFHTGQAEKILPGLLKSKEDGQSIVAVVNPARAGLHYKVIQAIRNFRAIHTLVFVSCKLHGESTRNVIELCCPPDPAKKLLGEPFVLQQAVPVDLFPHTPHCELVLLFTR
UniProt Q9C037: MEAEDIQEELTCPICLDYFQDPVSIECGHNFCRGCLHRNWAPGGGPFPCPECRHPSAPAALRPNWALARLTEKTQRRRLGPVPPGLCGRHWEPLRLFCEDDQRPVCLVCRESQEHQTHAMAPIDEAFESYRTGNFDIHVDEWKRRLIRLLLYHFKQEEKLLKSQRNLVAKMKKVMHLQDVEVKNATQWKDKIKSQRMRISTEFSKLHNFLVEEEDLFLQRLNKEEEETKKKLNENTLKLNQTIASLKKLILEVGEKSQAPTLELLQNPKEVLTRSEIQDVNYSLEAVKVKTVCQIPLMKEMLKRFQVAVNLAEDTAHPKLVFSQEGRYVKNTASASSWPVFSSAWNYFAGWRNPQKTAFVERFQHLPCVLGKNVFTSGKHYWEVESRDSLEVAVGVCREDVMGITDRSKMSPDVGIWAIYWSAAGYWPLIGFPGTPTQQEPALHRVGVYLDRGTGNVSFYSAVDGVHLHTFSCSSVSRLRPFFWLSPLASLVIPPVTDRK
UniProt Q9Y3Q8: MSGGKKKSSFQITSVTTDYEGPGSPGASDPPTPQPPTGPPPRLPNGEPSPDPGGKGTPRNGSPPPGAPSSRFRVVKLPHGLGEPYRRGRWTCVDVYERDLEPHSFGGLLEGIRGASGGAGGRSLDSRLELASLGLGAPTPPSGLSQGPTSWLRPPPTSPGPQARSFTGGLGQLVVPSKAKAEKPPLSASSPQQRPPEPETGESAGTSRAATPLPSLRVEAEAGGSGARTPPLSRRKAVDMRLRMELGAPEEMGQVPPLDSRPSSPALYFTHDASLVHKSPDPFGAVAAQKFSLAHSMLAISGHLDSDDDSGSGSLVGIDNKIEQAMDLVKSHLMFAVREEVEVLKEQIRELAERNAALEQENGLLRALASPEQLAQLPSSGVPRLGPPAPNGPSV
UniProt P11387: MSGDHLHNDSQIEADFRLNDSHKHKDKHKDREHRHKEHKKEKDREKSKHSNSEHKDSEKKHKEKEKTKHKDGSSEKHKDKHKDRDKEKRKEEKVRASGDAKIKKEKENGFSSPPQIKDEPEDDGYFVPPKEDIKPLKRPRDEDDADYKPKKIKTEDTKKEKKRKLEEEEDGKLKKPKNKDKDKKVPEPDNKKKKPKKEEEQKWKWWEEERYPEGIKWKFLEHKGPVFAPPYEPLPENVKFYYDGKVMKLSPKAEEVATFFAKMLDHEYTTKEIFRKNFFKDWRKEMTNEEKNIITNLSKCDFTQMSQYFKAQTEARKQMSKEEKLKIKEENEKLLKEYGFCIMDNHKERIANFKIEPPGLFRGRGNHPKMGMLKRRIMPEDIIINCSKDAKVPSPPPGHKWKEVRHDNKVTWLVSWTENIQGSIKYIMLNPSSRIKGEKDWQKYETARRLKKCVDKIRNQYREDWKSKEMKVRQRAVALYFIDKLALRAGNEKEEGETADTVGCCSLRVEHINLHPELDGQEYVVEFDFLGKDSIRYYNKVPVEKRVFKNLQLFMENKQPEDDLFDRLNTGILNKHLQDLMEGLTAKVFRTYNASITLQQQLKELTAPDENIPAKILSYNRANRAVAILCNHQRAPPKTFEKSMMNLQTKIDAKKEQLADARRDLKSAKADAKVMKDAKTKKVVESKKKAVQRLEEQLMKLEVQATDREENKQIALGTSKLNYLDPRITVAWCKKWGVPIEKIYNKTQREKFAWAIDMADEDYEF
UniProt Q96Q05, whole entry, looked up: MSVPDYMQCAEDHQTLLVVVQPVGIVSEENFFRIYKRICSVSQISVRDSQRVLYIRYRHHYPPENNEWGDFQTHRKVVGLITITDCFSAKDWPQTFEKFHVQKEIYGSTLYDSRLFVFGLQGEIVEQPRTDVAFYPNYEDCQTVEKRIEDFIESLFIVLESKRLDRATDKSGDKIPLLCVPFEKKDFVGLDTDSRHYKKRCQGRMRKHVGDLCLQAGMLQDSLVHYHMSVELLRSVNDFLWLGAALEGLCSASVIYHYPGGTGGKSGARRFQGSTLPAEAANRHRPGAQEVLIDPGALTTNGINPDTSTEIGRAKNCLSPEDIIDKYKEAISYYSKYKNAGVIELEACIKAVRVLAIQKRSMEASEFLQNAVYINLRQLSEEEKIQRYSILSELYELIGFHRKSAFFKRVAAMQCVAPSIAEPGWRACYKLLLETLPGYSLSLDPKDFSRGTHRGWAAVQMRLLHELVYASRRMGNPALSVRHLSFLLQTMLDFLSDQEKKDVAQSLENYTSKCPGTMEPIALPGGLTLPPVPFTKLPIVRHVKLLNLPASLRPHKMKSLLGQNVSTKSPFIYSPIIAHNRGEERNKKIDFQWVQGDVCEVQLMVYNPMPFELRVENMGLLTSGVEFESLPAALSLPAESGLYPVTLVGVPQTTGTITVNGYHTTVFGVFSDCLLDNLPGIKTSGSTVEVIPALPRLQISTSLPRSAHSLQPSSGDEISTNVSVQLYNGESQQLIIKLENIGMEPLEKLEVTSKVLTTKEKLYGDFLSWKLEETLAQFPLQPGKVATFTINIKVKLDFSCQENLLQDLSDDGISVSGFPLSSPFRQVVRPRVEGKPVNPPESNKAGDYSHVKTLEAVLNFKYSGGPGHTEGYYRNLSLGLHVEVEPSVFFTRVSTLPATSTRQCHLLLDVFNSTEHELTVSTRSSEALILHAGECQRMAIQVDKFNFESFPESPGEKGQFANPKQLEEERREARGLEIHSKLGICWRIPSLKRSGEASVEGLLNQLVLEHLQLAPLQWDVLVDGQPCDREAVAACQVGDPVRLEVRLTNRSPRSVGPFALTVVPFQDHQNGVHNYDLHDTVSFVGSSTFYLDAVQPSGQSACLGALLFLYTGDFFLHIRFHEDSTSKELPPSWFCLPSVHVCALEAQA

Legend:
Assay in all cases: log2 fold change, soluble protein after heating vs DMSO (PISA); higher = thermal stabilisation; K562 cells, 10 uM, 30 min; active = over 0.2 and 3.5 SD of the protein, either way, in both replicates (recomputed)
[1] = compound: C1=CC=C(C=C1)[C@H](COC2=CC3=C(C=C2)NC(=O)N3)NC(=O)C4=CC=CN(C4=O)CC5=CC(=C(C=C5)F)F
Procedure, shortened: (§1)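 For each measurement, 10 μM compound was applied for 30 min to K562 cells at 2×10^6 cells/mL. Aliquots were heated for 3 min across 48°C-58°C, pooled, and extracted in PBS with 0.5% NP-40 at 4°C; the supernatant after 21,000xg for 90 min was soluble protein. This was quantified by TMTpro 16plex LC-MS/MS with channel sums equalised, and thermal stability was reported relative to control samples from duplicates, on a log2 fold-change scale.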

[2] = compound: CC1=C(SC2=C1C(=N[C@H](C3=NN=C(N32)C)CC(=O)N)C4=CC=C(C=C4)Cl)C
Procedure, shortened: as §1

[3] = compound: CC1=C2C(=CC=C1)N=C(N(C2=O)C3=CC=CC=C3C)CN4C=NC5=C(N=CN=C54)N
Procedure, shortened: as §1

[4] = compound: Cc1sc2c(c1C)C(c1ccc(Cl)cc1)=N[C@@H](CC(=O)OC(C)(C)C)c1nnc(C)n1-2
Procedure, shortened: as §1

[5] = compound: c1ccc([C@@H]2C[C@H]2NC2CCNCC2)cc1
Procedure, shortened: as §1

Measured: log2 fold change

TPM1 (UniProt H7BYY1)
inactive: [1] 0 | [2] 0.023 | [3] -0.109 | [4] 0.008 | [5] 0.058

TNPO1 (UniProt Q92973)
inactive: [1] -0.017 | [2] 0.008 | [3] -0.012 | [4] -0.009 | [5] 0.018

TRAPPC11 (UniProt Q7Z392)
inactive: [1] 0.004 | [2] 0.117 | [3] 0.077 | [4] -0.031 | [5] 0.027

TRMT2B (UniProt Q96GJ1)
inactive: [1] 0.073 | [2] -0.052 | [3] 0.035 | [4] 0.136 | [5] -0.073

TRIM4 (UniProt Q9C037)
inactive: [1] -0.049 | [2] -0.014 | [3] 0.254 | [4] -0.04 | [5] -0.038

TSC22D4 (UniProt Q9Y3Q8)
inactive: [1] -0.002 | [2] 0.037 | [3] 0.01 | [4] -0.016 | [5] -0.037

TOLLIP (UniProt Q9H0E2)
inactive: [1] 0.003 | [2] 0.101 | [3] 0.059 | [4] -0.049 | [5] -0.045

TOP1 (UniProt P11387)
inactive: [1] 0.077 | [2] -0.146 | [3] -0.284 | [4] 0.116 | [5] 0.037

TRAPPC9 isoform 2 (UniProt Q96Q05)
inactive: [1] -0.001 | [2] 0.001 | [3] 0.062 | [4] 0.005 | [5] -0.01

2 consecutive entries out of the list so far:
TOLLIP (UniProt Q9H0E2)
inactive: [1] 0.003 | [2] 0.101 | [3] 0.059 | [4] -0.049 | [5] -0.045

TOP1 (UniProt P11387)
inactive: [1] 0.077 | [2] -0.146 | [3] -0.284 | [4] 0.116 | [5] 0.037
